Results are given in words; binding and its absence hold for the method and conditions named. Binding seen in cells or lysates may run through a third protein. These calls come from enrichment with a bait or labelling near it, and not all partners need be listed.
Biological target: T1, Mitochondrial inner membrane protein (Mitofilin/Mic60) (mouse (endogenous in mouse cardiac mitochondria)) (UniProt Q8CAQ8)
T1 sequence: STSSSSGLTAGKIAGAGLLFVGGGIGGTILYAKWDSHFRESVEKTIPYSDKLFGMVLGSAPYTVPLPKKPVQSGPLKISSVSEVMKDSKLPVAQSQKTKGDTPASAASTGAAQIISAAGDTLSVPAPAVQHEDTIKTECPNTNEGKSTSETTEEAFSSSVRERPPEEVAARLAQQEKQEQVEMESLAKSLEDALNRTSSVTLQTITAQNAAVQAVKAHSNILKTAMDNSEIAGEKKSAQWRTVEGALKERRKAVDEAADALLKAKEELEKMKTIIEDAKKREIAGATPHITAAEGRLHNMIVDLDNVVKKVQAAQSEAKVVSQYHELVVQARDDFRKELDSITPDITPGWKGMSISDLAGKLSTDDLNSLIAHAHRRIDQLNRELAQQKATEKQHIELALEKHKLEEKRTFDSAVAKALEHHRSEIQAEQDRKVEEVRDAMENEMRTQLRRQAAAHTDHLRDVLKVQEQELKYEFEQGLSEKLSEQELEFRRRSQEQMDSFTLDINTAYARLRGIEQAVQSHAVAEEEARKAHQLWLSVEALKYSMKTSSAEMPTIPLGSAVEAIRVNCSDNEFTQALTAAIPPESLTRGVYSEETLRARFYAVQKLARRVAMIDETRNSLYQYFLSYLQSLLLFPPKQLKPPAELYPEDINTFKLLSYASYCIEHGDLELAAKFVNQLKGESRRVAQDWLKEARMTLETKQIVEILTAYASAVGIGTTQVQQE
Assay: affinity purification with mass spectrometry; mitochondrial proteins from normal wild-type mouse hearts immunoprecipitated with an anti-Mitofilin antibody; eluate separated by SDS-PAGE, gel slices digested with trypsin, HPLC-ESI-MS/MS (Orbitrap Velos Pro); Mascot search of UniProt_mouse, Scaffold

The chains behind the UniProt entries cited, without tags or fusion partners. Residues count along the entry.
UniProt Q03265, residues 44-553: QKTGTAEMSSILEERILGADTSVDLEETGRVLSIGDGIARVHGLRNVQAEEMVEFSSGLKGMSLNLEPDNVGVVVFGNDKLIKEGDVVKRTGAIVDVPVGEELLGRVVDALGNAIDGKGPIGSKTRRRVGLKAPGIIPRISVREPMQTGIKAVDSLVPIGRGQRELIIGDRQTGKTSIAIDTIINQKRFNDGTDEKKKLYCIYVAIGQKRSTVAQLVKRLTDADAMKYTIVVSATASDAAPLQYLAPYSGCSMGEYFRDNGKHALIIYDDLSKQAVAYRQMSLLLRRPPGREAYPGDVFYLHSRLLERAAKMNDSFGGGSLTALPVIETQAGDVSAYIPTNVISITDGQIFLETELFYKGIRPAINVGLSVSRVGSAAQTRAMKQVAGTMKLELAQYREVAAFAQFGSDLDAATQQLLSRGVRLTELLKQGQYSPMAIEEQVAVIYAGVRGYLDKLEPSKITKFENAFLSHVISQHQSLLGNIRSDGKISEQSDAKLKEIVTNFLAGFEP
UniProt Q99KR7, residues 30-206: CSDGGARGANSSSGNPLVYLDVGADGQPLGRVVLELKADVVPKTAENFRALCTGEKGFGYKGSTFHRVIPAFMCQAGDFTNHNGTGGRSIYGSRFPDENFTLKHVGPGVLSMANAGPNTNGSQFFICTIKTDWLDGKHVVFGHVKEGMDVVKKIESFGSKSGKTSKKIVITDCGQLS
UniProt P38647, residues 47-679: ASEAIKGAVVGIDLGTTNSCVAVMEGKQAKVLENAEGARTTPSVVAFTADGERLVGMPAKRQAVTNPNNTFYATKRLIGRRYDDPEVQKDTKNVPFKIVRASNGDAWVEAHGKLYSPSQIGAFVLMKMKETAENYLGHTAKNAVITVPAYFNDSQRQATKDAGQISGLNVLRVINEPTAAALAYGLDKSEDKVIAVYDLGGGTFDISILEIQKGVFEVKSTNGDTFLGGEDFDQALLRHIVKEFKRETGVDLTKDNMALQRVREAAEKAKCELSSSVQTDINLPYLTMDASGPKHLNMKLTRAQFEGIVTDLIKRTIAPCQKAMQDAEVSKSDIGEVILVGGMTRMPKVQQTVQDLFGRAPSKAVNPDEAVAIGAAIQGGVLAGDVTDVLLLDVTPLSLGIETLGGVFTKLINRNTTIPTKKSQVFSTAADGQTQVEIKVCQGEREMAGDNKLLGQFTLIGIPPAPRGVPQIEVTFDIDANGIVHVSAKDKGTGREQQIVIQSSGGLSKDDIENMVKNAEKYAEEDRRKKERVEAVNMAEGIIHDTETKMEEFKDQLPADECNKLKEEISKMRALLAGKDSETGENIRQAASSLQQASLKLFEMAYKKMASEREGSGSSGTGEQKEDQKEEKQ

binding	Substance
binds	ATP synthase subunit α (from UniProt Q03265 44-553)
binds	Cyclophilin D (Ppif) (from UniProt Q99KR7 30-206)
binds	VDAC1 (from UniProt Q60932-2)
binds	glucose-regulated protein 75 (GRP75) (from UniProt P38647 47-679)

From PMC10135852
